No constants are given. Whether binding was seen depends on the method and setting. In cells and extracts the contact can be indirect. Some binding calls cover weakened binding; strength is not graded here.
Target: D2 dopamine receptor, endogenous in rat primary striatal neuronal cells (rat (endogenous in primary striatal neuronal cells)) (UniProt P61169)
Test: proximity ligation; in situ PLA in rat primary striatal neuronal cells (endogenous receptors); vehicle or TM-V^A2A peptide

Sequences of proteins named here, by UniProt entry; tags and fusion partners are left off. A change or cut given only in a name is not applied to a line headed by its entry.
UniProt P61169: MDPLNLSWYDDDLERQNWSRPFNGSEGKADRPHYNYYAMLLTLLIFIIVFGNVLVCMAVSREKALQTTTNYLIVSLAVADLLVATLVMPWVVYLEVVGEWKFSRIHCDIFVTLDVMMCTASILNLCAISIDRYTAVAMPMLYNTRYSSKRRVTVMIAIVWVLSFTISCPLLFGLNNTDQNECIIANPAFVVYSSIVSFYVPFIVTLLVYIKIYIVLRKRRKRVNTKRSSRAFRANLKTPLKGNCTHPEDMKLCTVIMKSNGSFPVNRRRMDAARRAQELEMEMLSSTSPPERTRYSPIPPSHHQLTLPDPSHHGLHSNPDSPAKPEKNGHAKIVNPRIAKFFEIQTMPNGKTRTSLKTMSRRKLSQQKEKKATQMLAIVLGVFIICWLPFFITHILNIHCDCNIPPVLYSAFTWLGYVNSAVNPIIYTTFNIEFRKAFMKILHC
UniProt P30543: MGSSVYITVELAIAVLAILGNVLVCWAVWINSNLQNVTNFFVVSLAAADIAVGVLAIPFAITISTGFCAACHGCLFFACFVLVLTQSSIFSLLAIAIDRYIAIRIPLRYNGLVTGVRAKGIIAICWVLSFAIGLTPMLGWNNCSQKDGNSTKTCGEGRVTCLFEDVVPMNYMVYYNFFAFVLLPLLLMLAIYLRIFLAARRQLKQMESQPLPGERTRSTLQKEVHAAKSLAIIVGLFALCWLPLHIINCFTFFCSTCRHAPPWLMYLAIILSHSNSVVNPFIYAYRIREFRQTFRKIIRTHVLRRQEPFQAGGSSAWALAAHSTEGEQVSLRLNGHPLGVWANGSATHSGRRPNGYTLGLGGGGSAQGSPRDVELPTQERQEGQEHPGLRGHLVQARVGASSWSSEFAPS

For “A2A adenosine receptor, endogenous in rat primary striatal neuronal cells (from UniProt P30543 1-410)”, the binding was “binds”.
